Each compound was assayed on GlyRα1/GlyT2 (assay: Two-electrode voltage clamp, oocytes co-expressing GlyRα1/GlyT2). Details: 1 µM lipid; fast-flow.
Assay type: cell-based, human
Excerpt: Human GlyT1b and GlyT2a WT cDNA were subcloned into the plasmid oocyte transcription vector (pOTV) and human GlyRα1, GlyRα3 and GlyRβ into pGEMHE. GlyR cDNA pGEMHE vectors were provided by Mary Collins at the University of Sydney (Sydney, Australia). Single point mutations were introduced into GlyRα1 using the Q5 site-directed mutagenesis kit (New England Biolabs (Genesearch), Arundel, Australia) with oligonucleotide primers (Merck, Sydney, Australia) containing the desired mutations. The amplified cDNA/pOTV or cDNA/pGEMHE product was then transformed in E. coli cells, and subsequently purified using the PureLink Quick Plasmid Miniprep Kit (Invitrogen by Life Technologies, Löhne, Germany), and sequenced by the Australian Genome Research Facility (Sydney, Australia). The purified plasmid DNA was linearised via the restriction enzyme, SpeI (New England Biolabs (Genesearch), Arundel, Australia) for GlyT1b and GlyT2a (henceforth referred to as GlyT1 and GlyT2 respectively) and NheI (New England Biolabs (Genesearch)) for GlyRα1, GlyRα3 and GlyRβ. Complementary RNAs were synthesised using the mMESAGE mMACHINE T7 kit (Ambion, Austin, TX, USA).
All work involving the use of animals was performed in accordance with the Australian Code of Practice for the Care and Use of Animals for Scientific Purposes and approved by the University of Sydney Animal Ethics Committee (Approval numbers 2016/970 and 2020/1704). […] The oocytes were then stored in frog Ringer’s solution (96 mM NaCl, 2 mM KCl, 1 mM MgCl2, 1.8 mM CaCl2, 5 mM HEPES, pH 7.5) which was supplemented with 2.5 mM sodium pyruvate, 0.5 mM theophylline, 50 μg/mL gentamicin and 100 μM mL^−1 tetracycline. […]
GlyT1, GlyT2, GlyRα1, GlyRα3, GlyRα1β and GlyRα3β are electrogenic, allowing activation to be measured via the two-electrode voltage clamp technique. Oocytes were voltage clamped at −60 mV, and whole-cell currents generated by the substrate were recorded with a Geneclamp 500 amplifier (Axon Instruments, Foster City, CA, USA), digitised by a Powerlab 2/20 chart recorder (ADInstruments, Sydney, Australia). […]

Compound	nH of glycine dose-response in the presence of lipid
CCCCCCCC/C=C\CCCCCCCC(=O)NCC(=O)O [C18-cis-ω9-glycine]	2.7 ± 0.4 ns
CCCCCCCCC=CCCCCCCCC(=O)NC(CCSC)C(=O)O [C18-cis-ω9-L-methionine]	2.6 ± 0.4 ns
CCCCCC/C=C\CCCCCCCCCC(=O)NCC(=O)O [C18-cis-ω7-glycine]	3.0 ± 0.5 ns

Reference: article PMC7760315 (Biomolecules, 2020)
